Publication PMC10163288
Some of the results follow.

B1: il2ra_site1_1z92_sap_15_mot_HHH_b1_07293_af2_000000029_0001_1_19_H_._HHH_b1_01454_0001_0000200009_0000001_0_0001 (protein)
chain: SEEIEELLREILKKLTNPAQRFLIEQLLRKLEKGNEEAVRKLIERFVRAVGDPELKEVLRLLKET
B2: il2ra_site2_2erj_normal_mot_HHH_eva_0077_000000062_0001_1_20_H_._7893fd715048dbce5e23317e54f1e302_0001_0001_0000500027_0000001_0_af2pred_0001_1_af2pred_swapped (protein)
chain: DEEEALREVAEILGVPPEAVKREVEQAKKVFGDPHAVRKFLAALLRSAGVPPEEAERLAELLLRG
B3: il2ra_site2_2erj_normal_mot_HHH_b1_01555_af2_000000123_0001_22_39_H_._HHH_b1_05014_af2_0001_0000300033_0000001_1 (protein)
chain: SSSSDEAELAARFLEEEVEELEEEGDPERAKSLLRLALRFARLSGDEELVERLERLLEELRSSSS
B4: il2ra_site1_1z92_sap_13_mot_HHH_b2_02761_000000226_0001_1_18_H_._HHH_b1_06544_0002_0000100004_0000001_0_0001_af2pred_0001_af2pred_1 (protein)
chain: SSSSSTERALERLVRSLVRIAGLSEEQEEELREVAERLLEEGVDLREIARILDEVAQRLDSSSSS
B5: il2ra_site1_2b5i_sap_15_mot_HHH_b1_06844_000000212_0001_1_18_H_._HHH_b2_07277_af2_0001_0000100004_0000001_0_0001_af2pred_0001_af2pred_1 (protein)
chain: SSSSSSSDQEELIRELIELAEQIEDKKRARAILSMAKSLARHANNPELEEEVEKLLEELSSSSSS
B6: il2ra_site2_2erj_normal_mot_HHH_b1_08185_000000063_0001_41_55_H_._HHH_b2_06415_0001_0000400008_0000001_0 (protein)
chain: SSSSSEVEEEVLEILAKAIEAAHEGNPEEARRLLEEALRLAREGNNPLLERYIELALEDLSSSSS
B7: il2ra_site1_3nfp_sap_10_mot_HHH_b2_07963_000000084_0001_1_20_H_._HHH_b2_07386_0001_0000100006_0000001_0_0001_af2pred_0001_af2pred_1 (protein)
chain: SHEVAQRLVRLALEFGSLERVLRDLIKSARRAGDPELVELLEEALRLVEEGDPEEAVRLAEEALE
B8: il2ra_site1_2b5i_normal_mot_HHH_b1_07881_af2_000000049_0001_1_19_H_._HHH_b1_06755_af2_0001_0000200019_0000001_0 (protein)
chain: SSSSDEEFERLEELFHEASRLWRKGDQEEARKLLEEAIRLARELGDERIVEQLEELLRRLSSSSS
B9: il2ra_site1_1z92_sap_19_mot_dcc082f2f05f1f568a7f06b444f4667a_0001_1_000000057_0001_35_49_H_._bc00b440d29913a483da04f69f237b60_0001_af2_0001_0000100001_0000001_0 … (protein)
chain: SSSSDEEARELLEAIARLIREFGLNLEQIQELLRLARELDQRGVSVEEIEELLRELAKELSSSSS
B10: il2ra_site2_3nfp_normal_mot_HHH_b1_02297_000000279_0001_41_58_H_._HHH_b2_07606_af2_0001_0000500038_0000001_0_af2pred_0001_1_af2pred_swapped (protein)
chain: SSSSSSDEEELKEELEELLKEGDEEKLKEVVREASYLAAELGDHELFALAILAFESLLSSSSSSS
B11: il2ra_site2_2erj_sap_28_mot_HHH_b1_03572_af2_000000102_0001_41_56_H_._HHH_b2_05779_af2_0001_0000200012_0000001_0_0001 (protein)
chain: SSSSDDFVEAAEEALRMAIQLARMRGDEEVVERLEELLEELEEHKDPRVAEEAHELAWKVLSSSS
B12: il2ra_site2_2erj_normal_mot_HHH_b2_05804_000000098_0001_44_58_H_._HHH_b2_07531_af2_0001_0000200020_0000001_0 (protein)
chain: SSSSDERWEKIARLAAEALELFEEGNREEAEEVLEEALRLAEENNDEFAKRYLEFARRAASSSSS
B13: il2ra_site1_2b5i_normal_mot_HHH_b2_06044_000000134_0001_1_20_H_._HHH_b1_07499_af2_0001_0000500033_0000001_0_af2pred_dldesign_0_af2pred (protein)
chain: SSSSSSDEVHELFKEALRLKRAGKKEEAKKLLEEAIAKARAAGDTKAVAELEYFLSKLSSSSSSS
B14: il2ra_site2_3nfp_normal_mot_HHH_b1_04960_000000149_0001_23_39_H_._HHH_b1_02627_af2_0001_0000200011_0000001_0 (protein)
chain: SSSSSEVEEEVKRLYEEAERLLEEGNPEEAEEVLLRASAIAYQNNDFELFALLVELMRKIASSSS
B15: il2ra_site2_2erj_normal_mot_HHH_b2_02303_000000050_0001_43_56_H_._HHH_b2_05996_0001_0000100001_0000001_0 (protein)
chain: SSSSSDEIEEEVLELIAEAAHIPDPREAVEVLEHALELAEEYGNELLRRYLELSLKDQRGSSSSS
B16: il2ra_site1_3nfp_normal_mot_6594a5726bb0445e4a0df846cfb9f966_0001_1_000000191_0001_16_30_H_._3ff75f044bbd266f07abdfc5542de534_0001_0001_0001000020_0000001_0 (protein)
chain: SSVVRMVEELRERLNIPPEEAVELVVEEIARLANIPPKEAVRLALRDVRRAGNPEISRILEELEK
B17: il2ra_site1_1z92_sap_9_mot_HHH_b2_03060_af2_000000189_0001_43_58_H_._HHH_b1_06544_af2_0002_0000400024_0000001_1_0001 (protein)
chain: SSSSDTLEEALEMLLKVAERALRAGNPEAARRWIKFAAEQARDLGDEEVLRELEELEELANSSSS
B18: il2ra_site2_3nfp_sap_27_mot_HHH_b1_05547_af2_000000149_0001_21_38_H_._ems_3hC_79_af2_0001_0000200007_0000001_0_0001_1_af2pred_0001_af2pred (protein)
chain: SSSSSEVEEEVRELIERVKEAIKEGDEHKAFALYVEAFQLVAKHDNEELEELLEELAKLLRSSSS

target: il2ra, P01589; test: yeast display titration

Apparent Kd, inactive:
B1 no binding seen
B2 no binding seen
B3 no binding seen
B4 no binding seen
B5 no binding seen
B6 no binding seen
B7 no binding seen
B8 no binding seen
B9 no binding seen
B10 no binding seen
B11 no binding seen
B12 no binding seen
B13 no binding seen
B14 no binding seen
B15 no binding seen
B16 no binding seen
B17 no binding seen
B18 no binding seen

A portion from further up, for reference:
Apparent Kd, inactive:
B17 no binding seen
B18 no binding seen
